Test results published in US8058332B2, “Phosphorus-sulfur FR additives and polymer systems containing same” (priority 2006, dated 2011).

Test: Limiting Oxygen Index (LOI), ASTM D 2863, of polystyrene blends with the FR additive
[1] = plaques, blend of 3% of the product in 97% polystyrene

With “2,2′,2″,2″′-[1,2,4,6-phenylenetetra(methylthio)]tetra[5,5-dimethyl-1,3,2-dioxaphosphorinane]-2,2′,2″,2″′-sulfide [Example 7]” the LOI (plaques, blend of 2.8% of the product in 97.2% polystyrene) was 24.3%.
For `CC1(C)COP(=S)(SC/C=C/CSP2(=S)OCC(C)(C)CO2)OC1` [Example 1, 2,2′-[2-butene-1,4-diylbis(methylthio)]bis[5,5-dimethyl-1,3,2-dioxaphosphorinane]-2,2′-disulfide], the LOI (plaques, melt blend with polystyrene resin at 4:96 weight ratio) was 26.5% and the LOI (polystyrene foam, 4.2% by weight FR additive, bulk density ~2.5 pcf) was 24.7%.
`CC1(C)COP(=S)(SCc2ccccc2CSP2(=S)OCC(C)(C)CO2)OC1` [Example 4, 2,2′-[1,2-phenylenebis(methylthio)]bis[5,5-dimethyl-1,3,2-dioxaphosphorinane]-2,2′-disulfide] showed an LOI [1] of 23% and an LOI (polystyrene foam, blend of 3% of the product in 97% polystyrene) of 23.3%.
Compound `CC1(C)COP(=O)(SCc2ccccc2CSP2(=O)OCC(C)(C)CO2)OC1` [Example 5, 2,2′-[1,2-phenylenebis(methylthio)]bis[5,5-dimethyl-1,3,2-dioxaphosphorinane]-2,2′-dioxide] has an LOI (plaques, blend of 2.5% of the product in 97.5% polystyrene) of 21.5.
`Cc1c(CSP2(=S)OCC(C)(C)CO2)c(C)c(CSP2(=S)OCC(C)(C)CO2)c(C)c1CSP1(=S)OCC(C)(C)CO1` [Example 8, 2,2′,2″-[2,4,6-trimethyl-1,3,5-phenylenetris(methylthio)]tris[5,5-dimethyl-1,3,2-dioxaphosphorinane]-2,2′,2″-disulfide] showed an LOI (plaques, blend of 3.1% of the product in 96.9% polystyrene) of 24.2% and an LOI (polystyrene foam (2.54 pcf), blend of 3.1% of the product in 96.9% polystyrene) of 27%.
`CC1(C)COP(=S)(SCP(=O)(CSP2(=S)OCC(C)(C)CO2)CSP2(=S)OCC(C)(C)CO2)OC1` [Example 16] gave an LOI (plaques, blend of 2.7% of the product in 97.3% polystyrene (Example 16)) of 22.8.
Work on `CC1(C)COP(=S)(Sc2nc(SP3(=S)OCC(C)(C)CO3)nc(SP3(=S)OCC(C)(C)CO3)n2)OC1` [Example 17, 2,2′,2″-[s-triazine-2,4,6-tris(thio)]tris[(5,5-dimethyl-1,3,2-dioxaphosphorinane)-2,2′,2″-sulfide]] yielded an LOI (plaques, blend of 2.7% of the product in 97.3% polystyrene (Example 17)) of 23.8.
`CC1(C)COP(=S)(N(Cc2ccccc2)P2(=S)OCC(C)(C)CO2)OC1` [Example 18, N-benzyl-N-(5,5-dimethyl-2-sulfido-1,3,2-dioxaphosphorinan-2-yl)-5,5-dimethyl-1,3,2-dioxaphosphorinan-2-amine-2-sulfide] gave an LOI (plaques, blend of 4.8% of the product in 95.2% polystyrene (Example 18)) of 23.
Work on `CC1(C)COP(=S)(Cc2ccccc2CP2(=S)OCC(C)(C)CO2)OC1` [Example 19, [1,2-phenylenebis(methylene)]bis[5,5-dimethyl[1,3,2]dioxaphosphorinane]2,2′-disulfide] yielded an LOI (plaques, blend of 5.1% of the product in 94.9% polystyrene) of 22.8.
`CC1(C)COP(=S)(SCCCCSP2(=S)OCC(C)(C)CO2)OC1` [Example 20, 2,2′-[1,4-butylbis(methylthio)]bis[5,5-dimethyl-1,3,2-dioxaphosphorinane]-2,2′-disulfide] showed an LOI (plaques, blend of 2.9% of the product in 97.1% polystyrene) of 22.6.
For `CC1(C)COP(=S)(SC2CC3CC2CC3SP2(=S)OCC(C)(C)CO2)OC1` (centres unmarked) [Example 21, 2,2′-[bicyclo[2.2.1]heptane-2,5-diylbis(thio)]bis[5,5-dimethyl-1,3,2-dioxaphosphorinane]2,2′-disulfide], the LOI [1] was 23.
`CCOC(=O)CC(SP1(=S)OCC(C)(C)CO1)C(=O)OCC` (centres unmarked) [Example 23] showed an LOI (plaques, blend of 4.6% of the product in 95.4% polystyrene (Example 23)) of 23.2.
In the case of `CC(CCCCCCC(C)SP1(=S)OCC(C)(C)CO1)SP1(=S)OCC(C)(C)CO1` (centres unmarked) [Example 24, 2,2′-[decane-2,9-diylbis(thio)]bis(5,5-dimethyl-1,3,2-dioxaphosphorinane)2,2′-disulfide], the LOI (plaques, blend of 6.3% of the product in 93.7% polystyrene) is reported as 24.3.
Work on `CC1(C)COP(=S)(SC(c2ccccc2)c2ccccc2)OC1` [Example 25, 2-[(diphenylmethyl)thio]-5,5-dimethyl-1,3,2-dioxaphosphorinane 2-sulfide] yielded an LOI (plaques, blend of 8.3% of the product in 91.7% polystyrene) of 26.
`O=P1(SC/C=C/CSP2(=O)Oc3ccccc3-c3ccccc32)Oc2ccccc2-c2ccccc21` (centres unmarked) [Example 26] gave an LOI (plaques, blend of 6.4% of the product in 93.6% polystyrene) of 24.8.
Compound `CC1(C)COP(=O)(Cc2ccc(CSP3(=S)OCC(C)(C)CO3)cc2)OC1` [Example 28, 2-({4-[(5,5-dimethyl-2-oxido-1,3,2-dioxaphosphorinan-2-yl)methyl]benzyl}thio)-5,5-dimethyl-1,3,2-dioxaphosphorinane-2-sulfide] has an LOI (plaques, blend of 4.8% of the product in 95.2% polystyrene (Example 28)) of 21.7.
`O=P1(SCc2ccccc2CSP2(=O)Oc3ccccc3-c3ccccc32)Oc2ccccc2-c2ccccc21` (centres unmarked) [Example 29, 6,6′-[1,2-phenylenebis(methylenethio)]bis(6H-dibenz[c, e][1,2]oxaphosphorin) 6,6′-dioxide] showed an LOI (plaques, blend of 7% of the product in 93% polystyrene) of 24.8.
Work on `Cc1c(CSP2(=O)Oc3ccccc3-c3ccccc32)c(C)c(CSP2(=O)Oc3ccccc3-c3ccccc32)c(C)c1CSP1(=O)Oc2ccccc2-c2ccccc21` (centres unmarked) [Example 30, 6,6′,6″-[(2,4,6-trimethylbenzene-1,3,5-triyl)tris(methylenethio)]tris(6H-dibenzo-[c, e][1,2]oxaphosphorin) 6,6′,6″-trioxide] yielded an LOI (plaques, blend of 6.2% of the product in 93.8% polystyrene) of 24.8%.
In the case of `CC(COCC(COCC(C)SP1(=S)OCC(C)(C)CO1)(COCC(C)SP1(=S)OCC(C)(C)CO1)COCC(C)SP1(=S)OCC(C)(C)CO1)SP1(=S)OCC(C)(C)CO1` (centres unmarked) [Example 31], the LOI (plaques, blend of 4.6% of the product in 95.4% polystyrene (Example 31)) is reported as 23.5.
Compound `CC1(C)COP(=S)(SCc2c(CSP3(=S)OCC(C)(C)CO3)c(CSP3(=S)OCC(C)(C)CO3)c(CSP3(=S)OCC(C)(C)CO3)c(CSP3(=S)OCC(C)(C)CO3)c2CSP2(=S)OCC(C)(C)CO2)OC1` [Example 33, 2,2′,2″,2″′,2″″′,2″″″-[benzene-1,2,3,4,5,6-hexaylhexakis(methylenethio)]hexakis(5,5-dimethyl-1,3,2-dioxaphosphorinane) 2,2′,2″,2″′,2′″″,2″″″-hexasulfide] has an LOI (plaques, blend of 5.3% of the product in 94.7% polystyrene) of 24.3.
With `CC1(C)COP(=S)(SCCC(=O)NCNC(=O)CCSP2(=S)OCC(C)(C)CO2)OC1` [Example 36] the LOI (plaques, blend of 6.9% of the product in 93.1% polystyrene) was 24.5.
Work on `CC1(C)COP(=S)(SC(c2ccccc2)c2cccc(C(SP3(=S)OCC(C)(C)CO3)c3ccccc3)c2)OC1` (centres unmarked) [Example 37, 2,2′-{1,3-phenylenebis[(phenylmethylene)thio]}bis(5,5-dimethyl-1,3,2-dioxaphosphorinane) 2,2′-disulfide] yielded an LOI (plaques, blend of 8.1% of the product in 91.9% polystyrene) of 25.8%.
`S=P1(CC(c2ccccc2)c2ccccc2)OCC2(CO1)COP(=S)(SC(c1ccccc1)c1ccccc1)OC2` (centres unmarked) [Example 38] showed an LOI (plaques, blend of 8.2% of the product in 91.8% polystyrene) of 26.7%.
